The record followed here is PMC6159992, “Selective disruption of TLR2-MyD88 interaction inhibits inflammation and attenuates Alzheimer’s pathology” (The Journal of Clinical Investigation, 2018).

Amino acid sequences for entries named in this document (tags omitted). Residues count along the entry.
UniProt P22366: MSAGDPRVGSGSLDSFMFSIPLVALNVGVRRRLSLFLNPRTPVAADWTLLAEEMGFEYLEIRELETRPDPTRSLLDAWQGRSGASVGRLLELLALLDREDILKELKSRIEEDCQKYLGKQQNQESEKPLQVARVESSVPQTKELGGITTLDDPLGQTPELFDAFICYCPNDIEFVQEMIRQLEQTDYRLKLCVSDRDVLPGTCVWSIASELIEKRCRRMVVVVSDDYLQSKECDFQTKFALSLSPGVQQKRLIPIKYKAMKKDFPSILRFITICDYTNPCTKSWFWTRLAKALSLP
UniProt Q9QUN7, residues 640-784: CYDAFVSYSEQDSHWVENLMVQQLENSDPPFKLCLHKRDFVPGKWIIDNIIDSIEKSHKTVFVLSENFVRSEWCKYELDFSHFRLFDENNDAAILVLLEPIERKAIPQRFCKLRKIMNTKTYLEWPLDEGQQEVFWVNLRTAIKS
UniProt Q9QUK6, residues 26-835: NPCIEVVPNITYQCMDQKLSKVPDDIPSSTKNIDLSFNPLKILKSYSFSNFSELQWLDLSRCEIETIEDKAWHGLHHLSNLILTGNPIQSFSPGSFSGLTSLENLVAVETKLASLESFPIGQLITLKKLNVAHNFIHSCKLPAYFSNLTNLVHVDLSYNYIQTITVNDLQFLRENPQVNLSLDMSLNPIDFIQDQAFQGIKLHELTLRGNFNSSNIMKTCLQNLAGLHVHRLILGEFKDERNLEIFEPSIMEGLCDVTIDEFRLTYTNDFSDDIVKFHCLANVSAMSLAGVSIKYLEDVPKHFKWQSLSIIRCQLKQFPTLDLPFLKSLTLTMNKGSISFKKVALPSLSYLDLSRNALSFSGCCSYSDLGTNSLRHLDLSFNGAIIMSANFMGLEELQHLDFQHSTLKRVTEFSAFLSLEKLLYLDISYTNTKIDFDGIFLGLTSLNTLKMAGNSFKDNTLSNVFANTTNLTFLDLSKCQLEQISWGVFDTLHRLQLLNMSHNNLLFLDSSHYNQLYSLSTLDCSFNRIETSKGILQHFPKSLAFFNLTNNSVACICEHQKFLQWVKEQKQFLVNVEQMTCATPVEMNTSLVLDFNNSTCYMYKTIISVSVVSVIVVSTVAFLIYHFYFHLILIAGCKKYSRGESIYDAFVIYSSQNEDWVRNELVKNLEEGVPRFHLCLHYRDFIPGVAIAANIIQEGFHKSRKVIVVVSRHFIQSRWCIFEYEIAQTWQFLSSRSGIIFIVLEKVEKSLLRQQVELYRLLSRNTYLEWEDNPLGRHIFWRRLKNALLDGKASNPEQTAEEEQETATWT

This test has as its target MyD88 (mouse (endogenous in BV-2)) (UniProt P22366). Kind of test: co-IP; BV-2 microglial cells preincubated with WT TIDM or mTIDM for 1 hour, stimulated for 1 hour with 1 μM fibrillar Aβ1-42 or LPS, serum-free; cellular extracts immunoprecipitated with anti-MyD88 antibody, blotted for TLR2, TLR4 or cMyc (cells transduced with pLenti-cMyc-cTlr2); normal IgG as control.

Results are given in words; binding and its absence hold for the method and conditions named. Binding seen in cells or lysates may run through a third protein. Some results given as binding are weak or reduced against the parent protein; the word gives no strength.

Regarding “Myc-tagged cTLR2 expressed in BV-2 microglial cells (pLenti-cMyc-cTlr2) (from UniProt Q9QUN7 640-784) (domain or fragment)”, the binding entry is listed as “binds”.

For “TLR4 (from UniProt Q9QUK6 26-835) (receptor)”, the binding entry is “binds”.
